Assay results: publication PMC8062120
No constants are given. Whether binding was seen depends on the method and setting. Binding calls can cover weak binding; strength is not graded here. Where a sequence is shown, tags or fusion partners need not be part of it.

Sequences of proteins named here, by UniProt entry; tags and fusion partners are left off. A change or cut given only in a name is not applied to a line headed by its entry.
UniProt P35609: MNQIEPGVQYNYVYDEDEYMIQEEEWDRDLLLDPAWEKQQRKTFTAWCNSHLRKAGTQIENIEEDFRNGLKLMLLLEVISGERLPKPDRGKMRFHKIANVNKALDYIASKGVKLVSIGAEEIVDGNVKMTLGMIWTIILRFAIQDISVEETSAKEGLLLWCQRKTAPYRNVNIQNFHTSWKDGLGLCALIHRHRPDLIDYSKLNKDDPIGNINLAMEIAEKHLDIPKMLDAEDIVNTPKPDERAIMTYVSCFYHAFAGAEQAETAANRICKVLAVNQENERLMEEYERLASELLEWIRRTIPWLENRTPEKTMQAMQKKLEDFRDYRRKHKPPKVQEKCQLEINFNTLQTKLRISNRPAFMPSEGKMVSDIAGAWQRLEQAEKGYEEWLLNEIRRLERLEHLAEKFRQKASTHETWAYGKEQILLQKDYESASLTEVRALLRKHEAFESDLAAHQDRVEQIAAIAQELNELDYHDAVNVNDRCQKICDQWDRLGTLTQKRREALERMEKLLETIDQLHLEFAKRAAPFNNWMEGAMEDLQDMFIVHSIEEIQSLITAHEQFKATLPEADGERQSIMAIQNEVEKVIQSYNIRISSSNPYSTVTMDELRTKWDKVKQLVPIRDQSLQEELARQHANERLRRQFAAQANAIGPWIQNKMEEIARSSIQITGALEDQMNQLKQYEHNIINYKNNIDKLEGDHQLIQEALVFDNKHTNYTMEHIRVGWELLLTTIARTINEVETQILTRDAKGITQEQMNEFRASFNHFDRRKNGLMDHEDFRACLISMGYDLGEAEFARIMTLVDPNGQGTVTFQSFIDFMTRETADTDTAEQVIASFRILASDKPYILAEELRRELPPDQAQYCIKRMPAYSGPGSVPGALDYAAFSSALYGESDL

Molecular target: T1, Full-length myotilin with N-terminal thioredoxin tag (Trx-MYOT) (human) (UniProt Q9UBF9)
T1 sequence: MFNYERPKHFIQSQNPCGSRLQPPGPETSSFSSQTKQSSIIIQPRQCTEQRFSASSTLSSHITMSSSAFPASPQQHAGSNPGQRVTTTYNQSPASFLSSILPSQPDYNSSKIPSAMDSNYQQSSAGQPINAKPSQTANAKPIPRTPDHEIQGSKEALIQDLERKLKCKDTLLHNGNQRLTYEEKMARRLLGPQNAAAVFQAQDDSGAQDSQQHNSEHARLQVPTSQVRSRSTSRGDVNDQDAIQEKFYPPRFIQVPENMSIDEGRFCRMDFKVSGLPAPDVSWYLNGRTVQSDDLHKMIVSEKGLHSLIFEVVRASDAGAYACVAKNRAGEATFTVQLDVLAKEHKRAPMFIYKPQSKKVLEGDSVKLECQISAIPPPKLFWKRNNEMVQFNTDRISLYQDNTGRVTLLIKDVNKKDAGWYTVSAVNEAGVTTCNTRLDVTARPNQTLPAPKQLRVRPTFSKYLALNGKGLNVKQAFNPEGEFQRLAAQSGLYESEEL
Assay: pull-down; Trx-MYOT (5 μM) mixed with α-actinin-2 constructs (2.5 to 7.5 μM) in buffer P (20 mM Tris-HCl, 100 mM NaCl, 10 mM imidazole, 5% glycerol, pH 7.5), captured on Co2+-loaded Chelating Sepharose beads, room temperature; SDS-PAGE; both purified

binding: binds
Substance: Constitutively open mutant of α-actinin-2 (ACTN2-NEECK) (from UniProt P35609)
